Assay: general procedure: Fmoc solid-phase peptide synthesis; Wang resin loaded with Fmoc-L-Cys(Trt)-OH; HOBT/HBTU
Conditions: conjugation step

| Substance | conjugation yield [%] |
| --- | --- |
| DMTHF-EC-119-Tubulysin B Hydrazide | 55 |
| DMTHF-EC-119-Desacetylvinblastine Hydrazide | 45 |

Source: US9629918B2 (PURDUE RESEARCH FOUNDATION, priority 2012, dated 2017)
